# Values of other authors in patent US8546378B2, “5HT2C receptor modulator compositions and methods of use” (Arena Pharmaceuticals, Inc., priority 2004, dated 2013).
# At least one structure is not confirmed: it was looked up by name or label, or the drawing left a doubt.
# Details: cited from earlier work
smiles,measurement,setting,value
"FC(F)(F)c1cccc(N2CCNCC2)c1 [TFMPP, m-trifluoromethylphenylpiperazine]",effect on food intake,compound alone,decreased food intake
same,decrease in food intake when selective 5HT-2C antagonist SB 242084 is added,with SB 242084,not abolished
